Data as given in the supplement of paper PMC7661543.
The effect of the compound repeats well; differences between the knockouts mostly do not.

Tested on: MDA-MB-231
Experiment: relative cell number vs DMSO control (72 h) (% of DMSO); higher = less growth inhibition (more cells)
Method: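 QMAP-Seq: a pool of 5 breast cancer cell lines (ZR-75-1, SKBR3, HCC-38, MDA-MB-231, BT-20), each carrying 12 doxycycline-inducible Cas9 sgRNA perturbations (11 knockouts plus non-targeting sgNT), was treated with compounds for 72 h at four 10-fold doses (10 nM-10 uM or 1 nM-1 uM range). Barcodes were amplified and sequenced, and cell number was interpolated from 293T spike-in standard curves. The result is expressed as % of the median of DMSO wells. Two biological replicates.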

CCc1c2c(nc3ccc(O)cc13)-c1cc3c(c(=O)n1C2)COC(=O)[C@]3(O)CC [SN38]
Details	relative cell number
sgRNA knockout: sgATF3, 1 nM	74.9
sgRNA knockout: sgATF3, 10 nM	25.2
sgRNA knockout: sgATF3, 100 nM	23.7
sgRNA knockout: sgATF3, 1000 nM	25.2
sgRNA knockout: sgATF4, 1 nM	56.1
sgRNA knockout: sgATF4, 10 nM	34.1
sgRNA knockout: sgATF4, 100 nM	22.2
sgRNA knockout: sgATF4, 1000 nM	25.71
sgRNA knockout: sgATF6, 1 nM	92.8
sgRNA knockout: sgATF6, 10 nM	45.4
sgRNA knockout: sgATF6, 100 nM	23.8
sgRNA knockout: sgATF6, 1000 nM	21
sgRNA knockout: sgATG7, 1 nM	82.1
sgRNA knockout: sgATG7, 10 nM	32.6
sgRNA knockout: sgATG7, 100 nM	21
sgRNA knockout: sgATG7, 1000 nM	17.4
sgRNA knockout: sgERN1, 1 nM	83.4
sgRNA knockout: sgERN1, 10 nM	29.6
sgRNA knockout: sgERN1, 100 nM	27.3
sgRNA knockout: sgERN1, 1000 nM	19.6
sgRNA knockout: sgHSF1, 1 nM	80
sgRNA knockout: sgHSF1, 10 nM	27.8
sgRNA knockout: sgHSF1, 100 nM	19.6
sgRNA knockout: sgHSF1, 1000 nM	17.4
sgRNA knockout: sgHSF2, 1 nM	89.2
sgRNA knockout: sgHSF2, 10 nM	32.5
sgRNA knockout: sgHSF2, 100 nM	21.5
sgRNA knockout: sgHSF2, 1000 nM	19.1
sgRNA knockout: sgKEAP1, 1 nM	85.3
sgRNA knockout: sgKEAP1, 10 nM	43.4
sgRNA knockout: sgKEAP1, 100 nM	16.6
sgRNA knockout: sgKEAP1, 1000 nM	18.5
sgRNA knockout: sgNFE2L2, 1 nM	77.3
sgRNA knockout: sgNFE2L2, 10 nM	25.1
sgRNA knockout: sgNFE2L2, 100 nM	26.8
sgRNA knockout: sgNFE2L2, 1000 nM	20.9
sgRNA knockout: sgSLC35F2, 1 nM	80.3
sgRNA knockout: sgSLC35F2, 10 nM	34.3
sgRNA knockout: sgSLC35F2, 100 nM	20.1
sgRNA knockout: sgSLC35F2, 1000 nM	19.4
sgRNA knockout: sgXBP1, 1 nM	91.95
sgRNA knockout: sgXBP1, 10 nM	33.9
sgRNA knockout: sgXBP1, 100 nM	19.9
sgRNA knockout: sgXBP1, 1000 nM	20.7

CC(C)[C@H](O)C(=O)N[C@@H](C)C(=O)N[C@@H]1C(=O)N(C)CCc2ccccc21 [Semagacestat]
Details	relative cell number
sgRNA knockout: sgATF3, 10 nM	115
sgRNA knockout: sgATF3, 100 nM	92.6
sgRNA knockout: sgATF3, 1000 nM	90.4
sgRNA knockout: sgATF3, 10000 nM	96.2
sgRNA knockout: sgATF4, 10 nM	99.7
sgRNA knockout: sgATF4, 100 nM	103
sgRNA knockout: sgATF4, 1000 nM	76.3
sgRNA knockout: sgATF4, 10000 nM	77.6
sgRNA knockout: sgATF6, 10 nM	84.1
sgRNA knockout: sgATF6, 100 nM	107
sgRNA knockout: sgATF6, 1000 nM	112
sgRNA knockout: sgATF6, 10000 nM	102
sgRNA knockout: sgATG7, 10 nM	111.2
sgRNA knockout: sgATG7, 100 nM	84.2
sgRNA knockout: sgATG7, 1000 nM	82.9
sgRNA knockout: sgATG7, 10000 nM	76.1
sgRNA knockout: sgERN1, 10 nM	89.6
sgRNA knockout: sgERN1, 100 nM	129
sgRNA knockout: sgERN1, 1000 nM	79.9
sgRNA knockout: sgERN1, 10000 nM	95.92
sgRNA knockout: sgHSF1, 10 nM	94.7
sgRNA knockout: sgHSF1, 100 nM	87.2
sgRNA knockout: sgHSF1, 1000 nM	79.7
sgRNA knockout: sgHSF1, 10000 nM	70.8
sgRNA knockout: sgHSF2, 10 nM	100
sgRNA knockout: sgHSF2, 100 nM	92
sgRNA knockout: sgHSF2, 1000 nM	87.7
sgRNA knockout: sgHSF2, 10000 nM	81.7
sgRNA knockout: sgKEAP1, 10 nM	86.9
sgRNA knockout: sgKEAP1, 100 nM	80.3
sgRNA knockout: sgKEAP1, 1000 nM	98.1
sgRNA knockout: sgKEAP1, 10000 nM	110
sgRNA knockout: sgNFE2L2, 10 nM	109
sgRNA knockout: sgNFE2L2, 100 nM	86.5
sgRNA knockout: sgNFE2L2, 1000 nM	88.5
sgRNA knockout: sgNFE2L2, 10000 nM	67.4
sgRNA knockout: sgSLC35F2, 10 nM	126
sgRNA knockout: sgSLC35F2, 100 nM	94
sgRNA knockout: sgSLC35F2, 1000 nM	96
sgRNA knockout: sgSLC35F2, 10000 nM	92
sgRNA knockout: sgXBP1, 10 nM	127
sgRNA knockout: sgXBP1, 100 nM	86.9
sgRNA knockout: sgXBP1, 1000 nM	94.7
sgRNA knockout: sgXBP1, 10000 nM	97.1
